The results in this text go back to publication PMC3905876.

Protein sequences, listed by entry. Tags and fused reporters are not part of them.
UniProt O60244: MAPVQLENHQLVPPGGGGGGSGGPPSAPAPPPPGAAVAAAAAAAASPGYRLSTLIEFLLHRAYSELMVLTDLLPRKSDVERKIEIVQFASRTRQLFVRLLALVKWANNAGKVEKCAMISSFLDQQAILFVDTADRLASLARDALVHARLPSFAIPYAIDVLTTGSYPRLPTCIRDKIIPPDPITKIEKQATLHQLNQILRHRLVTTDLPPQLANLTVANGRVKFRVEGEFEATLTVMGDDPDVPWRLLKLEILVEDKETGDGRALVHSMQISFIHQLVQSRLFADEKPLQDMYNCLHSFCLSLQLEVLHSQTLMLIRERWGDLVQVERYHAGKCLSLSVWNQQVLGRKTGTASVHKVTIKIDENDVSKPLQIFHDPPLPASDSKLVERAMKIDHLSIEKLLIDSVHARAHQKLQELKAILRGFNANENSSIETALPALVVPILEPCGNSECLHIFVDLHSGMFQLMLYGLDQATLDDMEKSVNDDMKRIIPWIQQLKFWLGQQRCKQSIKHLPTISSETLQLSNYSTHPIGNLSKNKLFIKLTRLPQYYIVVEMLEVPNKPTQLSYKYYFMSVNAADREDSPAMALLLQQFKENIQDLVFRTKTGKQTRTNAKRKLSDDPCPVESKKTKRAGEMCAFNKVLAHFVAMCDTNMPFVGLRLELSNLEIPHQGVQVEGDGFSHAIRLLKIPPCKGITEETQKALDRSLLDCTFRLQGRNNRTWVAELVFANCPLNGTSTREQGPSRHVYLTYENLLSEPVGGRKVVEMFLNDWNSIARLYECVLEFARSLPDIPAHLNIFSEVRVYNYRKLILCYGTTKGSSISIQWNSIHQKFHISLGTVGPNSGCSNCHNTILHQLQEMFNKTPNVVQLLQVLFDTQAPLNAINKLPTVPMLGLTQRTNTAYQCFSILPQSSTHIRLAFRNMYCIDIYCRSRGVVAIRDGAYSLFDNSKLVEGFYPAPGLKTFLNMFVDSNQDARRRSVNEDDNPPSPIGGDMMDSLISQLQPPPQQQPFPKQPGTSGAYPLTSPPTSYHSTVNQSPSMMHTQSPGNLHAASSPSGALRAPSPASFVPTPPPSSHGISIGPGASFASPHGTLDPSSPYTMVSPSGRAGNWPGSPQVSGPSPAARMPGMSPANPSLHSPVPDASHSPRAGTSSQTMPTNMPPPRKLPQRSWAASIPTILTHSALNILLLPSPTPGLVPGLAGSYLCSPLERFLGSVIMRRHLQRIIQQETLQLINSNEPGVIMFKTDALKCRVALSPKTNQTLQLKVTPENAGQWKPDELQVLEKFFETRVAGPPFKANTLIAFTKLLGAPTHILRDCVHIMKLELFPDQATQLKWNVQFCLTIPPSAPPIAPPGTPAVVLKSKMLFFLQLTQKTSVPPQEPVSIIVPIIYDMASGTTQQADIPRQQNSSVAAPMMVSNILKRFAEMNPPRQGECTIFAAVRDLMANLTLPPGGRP
UniProt A2ABV5: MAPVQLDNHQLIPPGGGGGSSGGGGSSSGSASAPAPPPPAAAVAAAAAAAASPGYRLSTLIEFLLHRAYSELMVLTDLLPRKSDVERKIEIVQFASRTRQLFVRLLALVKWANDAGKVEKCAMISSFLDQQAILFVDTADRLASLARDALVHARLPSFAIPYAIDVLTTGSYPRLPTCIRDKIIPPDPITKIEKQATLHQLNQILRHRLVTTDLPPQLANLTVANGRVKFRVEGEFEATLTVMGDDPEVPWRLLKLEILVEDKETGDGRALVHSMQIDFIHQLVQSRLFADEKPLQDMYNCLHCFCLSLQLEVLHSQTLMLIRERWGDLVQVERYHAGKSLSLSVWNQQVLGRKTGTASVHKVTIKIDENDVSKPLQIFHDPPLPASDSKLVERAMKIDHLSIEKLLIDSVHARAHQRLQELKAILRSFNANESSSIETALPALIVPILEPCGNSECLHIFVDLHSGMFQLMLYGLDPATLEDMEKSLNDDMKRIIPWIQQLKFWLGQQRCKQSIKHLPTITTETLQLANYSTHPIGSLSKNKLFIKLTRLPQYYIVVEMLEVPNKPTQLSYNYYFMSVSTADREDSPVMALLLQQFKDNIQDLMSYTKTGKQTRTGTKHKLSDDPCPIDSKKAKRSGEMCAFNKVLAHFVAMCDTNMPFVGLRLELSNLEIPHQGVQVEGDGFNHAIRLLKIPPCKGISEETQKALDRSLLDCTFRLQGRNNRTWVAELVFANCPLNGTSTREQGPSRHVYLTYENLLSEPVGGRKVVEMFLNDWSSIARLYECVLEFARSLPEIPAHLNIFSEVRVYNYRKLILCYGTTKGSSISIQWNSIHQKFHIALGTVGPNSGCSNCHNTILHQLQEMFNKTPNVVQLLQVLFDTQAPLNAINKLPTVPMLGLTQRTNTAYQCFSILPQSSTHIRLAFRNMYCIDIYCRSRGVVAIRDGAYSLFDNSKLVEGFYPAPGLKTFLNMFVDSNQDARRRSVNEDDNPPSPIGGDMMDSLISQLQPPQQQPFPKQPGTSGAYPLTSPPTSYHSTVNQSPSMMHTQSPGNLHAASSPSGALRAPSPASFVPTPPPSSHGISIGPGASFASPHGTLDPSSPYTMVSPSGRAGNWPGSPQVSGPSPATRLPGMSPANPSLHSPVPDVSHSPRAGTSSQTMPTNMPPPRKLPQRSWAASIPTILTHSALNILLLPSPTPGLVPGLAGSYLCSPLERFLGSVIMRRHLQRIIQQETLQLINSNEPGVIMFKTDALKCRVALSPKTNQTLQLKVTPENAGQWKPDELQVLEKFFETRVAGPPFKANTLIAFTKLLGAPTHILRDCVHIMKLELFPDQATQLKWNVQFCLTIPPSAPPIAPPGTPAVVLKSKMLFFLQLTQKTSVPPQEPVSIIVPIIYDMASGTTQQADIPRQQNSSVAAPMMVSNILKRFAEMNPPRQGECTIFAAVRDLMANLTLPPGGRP
UniProt P49336: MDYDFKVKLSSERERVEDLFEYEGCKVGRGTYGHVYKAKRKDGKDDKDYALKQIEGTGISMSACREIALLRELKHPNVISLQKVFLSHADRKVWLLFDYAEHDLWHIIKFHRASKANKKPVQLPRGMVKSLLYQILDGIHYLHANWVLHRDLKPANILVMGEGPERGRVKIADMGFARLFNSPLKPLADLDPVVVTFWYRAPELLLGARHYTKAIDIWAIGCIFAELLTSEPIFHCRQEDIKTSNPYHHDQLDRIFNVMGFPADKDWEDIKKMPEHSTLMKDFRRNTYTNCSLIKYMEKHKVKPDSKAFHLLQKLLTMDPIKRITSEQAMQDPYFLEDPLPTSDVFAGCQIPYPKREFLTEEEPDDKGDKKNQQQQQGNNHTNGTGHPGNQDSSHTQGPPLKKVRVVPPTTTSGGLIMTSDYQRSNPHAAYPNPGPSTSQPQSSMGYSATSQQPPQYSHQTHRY

These are yes or no findings as the source states them, for the method shown. In cells and extracts the contact can be indirect. Some binding calls cover weakened binding; strength is not graded here. For some of these results: Sequences can lack the tags named with a protein.

The target of assay [1] is MED14 (human (endogenous in HeLa)) (UniProt O60244). Description: co-IP; MED14 immunoprecipitates from lysates of serum-starved or TPA-stimulated HeLa cells, endogenous proteins; immunoblot. In general terms: A western blot detects proteins with antibodies after separation by electrophoresis.
The target in assay [2] is MED14 (mouse, in MEFs) (mouse (endogenous in MEFs)) (UniProt A2ABV5). Description: co-IP; MED14 immunoprecipitates from lysates of MED23 wt and MED23-/- MEFs transfected with a vector for Elk-1 (serum-starved or TPA) or Elk-GFP; immunoblot.
The target in assay [3] is HA-tagged MED14 (human) (UniProt O60244). As to the kind of experiment: co-IP; anti-HA immunoprecipitates from lysates of HEK293 cells transfected with tagged MED14 and Elk-1, serum-starved, EGF, or EGF after SB290190; immunoblot.
Assay [4] shares this target. Description: co-IP; anti-HA immunoprecipitates from the lysates left after the MED23 immunoprecipitation, HEK293 cells transfected with tagged MED14 and Elk-1, serum-starved or EGF-treated; immunoblot.
For assay [5], the target named is CDK8 (human (endogenous in HeLa)) (UniProt P49336). As to the kind of experiment: co-IP; endogenous proteins (Supplementary Figure S2c); cells not shown.
Assay [6] has as its target MED14 (human (endogenous in HeLa)) (UniProt O60244). Described as above.

B1: Elk-1 (protein, UniProt P19419 1-428)
chain: MDPSVTLWQFLLQLLREQGNGHIISWTSRDGGEFKLVDAEEVARLWGLRKNKTNMNYDKLSRALRYYYDKNIIRKVSGQKFVYKFVSYPEVAGCSTEDCPPQPEVSVTSTMPNVAPAAIHAAPGDTVSGKPGTPKGAGMAGPGGLARSSRNEYMRSGLYSTFTIQSLQPQPPPHPRPAVVLPSAAPAGAAAPPSGSRSTSPSPLEACLEAEEAGLPLQVILTPPEAPNLKSEELNVEPGLGRALPPEVKVEGPKEELEVAGERGFVPETTKAEPEVPPQEGVPARLPAVVMDTAGQAGGHAASSPEISQPQKGRKPRDLELPLSPSLLGGPGPERTPGSGSGSGLQAPGPALTPSLLPTHTLTPVLLTPSSLPPSIHFWSTLSPIAPRSPAKLSFQFPSSGSAQVHIPSISVDGLSTPVVLSPGPQKP
For the molecule B1, in assay [1], the binding entry is recorded as “binds”.

B2: Elk-GFP fusion protein (protein, UniProt P19419 1-428)
chain: MDPSVTLWQFLLQLLREQGNGHIISWTSRDGGEFKLVDAEEVARLWGLRKNKTNMNYDKLSRALRYYYDKNIIRKVSGQKFVYKFVSYPEVAGCSTEDCPPQPEVSVTSTMPNVAPAAIHAAPGDTVSGKPGTPKGAGMAGPGGLARSSRNEYMRSGLYSTFTIQSLQPQPPPHPRPAVVLPSAAPAGAAAPPSGSRSTSPSPLEACLEAEEAGLPLQVILTPPEAPNLKSEELNVEPGLGRALPPEVKVEGPKEELEVAGERGFVPETTKAEPEVPPQEGVPARLPAVVMDTAGQAGGHAASSPEISQPQKGRKPRDLELPLSPSLLGGPGPERTPGSGSGSGLQAPGPALTPSLLPTHTLTPVLLTPSSLPPSIHFWSTLSPIAPRSPAKLSFQFPSSGSAQVHIPSISVDGLSTPVVLSPGPQKP
As to B2, the binding entry in assay [2] is recorded as “binds”.

B3: phospho-Elk-1 (protein, UniProt P19419 1-428)
chain: MDPSVTLWQFLLQLLREQGNGHIISWTSRDGGEFKLVDAEEVARLWGLRKNKTNMNYDKLSRALRYYYDKNIIRKVSGQKFVYKFVSYPEVAGCSTEDCPPQPEVSVTSTMPNVAPAAIHAAPGDTVSGKPGTPKGAGMAGPGGLARSSRNEYMRSGLYSTFTIQSLQPQPPPHPRPAVVLPSAAPAGAAAPPSGSRSTSPSPLEACLEAEEAGLPLQVILTPPEAPNLKSEELNVEPGLGRALPPEVKVEGPKEELEVAGERGFVPETTKAEPEVPPQEGVPARLPAVVMDTAGQAGGHAASSPEISQPQKGRKPRDLELPLSPSLLGGPGPERTPGSGSGSGLQAPGPALTPSLLPTHTLTPVLLTPSSLPPSIHFWSTLSPIAPRSPAKLSFQFPSSGSAQVHIPSISVDGLSTPVVLSPGPQKP
modifications: phosphorylated (detected with a phospho-Elk antibody; site not given)
For the molecule B3, the binding result in assay [1] was “binds”.

B4: tagged phospho-Elk-1 (protein, UniProt P19419 1-428)
chain: MDPSVTLWQFLLQLLREQGNGHIISWTSRDGGEFKLVDAEEVARLWGLRKNKTNMNYDKLSRALRYYYDKNIIRKVSGQKFVYKFVSYPEVAGCSTEDCPPQPEVSVTSTMPNVAPAAIHAAPGDTVSGKPGTPKGAGMAGPGGLARSSRNEYMRSGLYSTFTIQSLQPQPPPHPRPAVVLPSAAPAGAAAPPSGSRSTSPSPLEACLEAEEAGLPLQVILTPPEAPNLKSEELNVEPGLGRALPPEVKVEGPKEELEVAGERGFVPETTKAEPEVPPQEGVPARLPAVVMDTAGQAGGHAASSPEISQPQKGRKPRDLELPLSPSLLGGPGPERTPGSGSGSGLQAPGPALTPSLLPTHTLTPVLLTPSSLPPSIHFWSTLSPIAPRSPAKLSFQFPSSGSAQVHIPSISVDGLSTPVVLSPGPQKP
modifications: phosphorylated (detected with a phospho-Elk antibody; site not given)
Take B4: the binding result with HA-tagged MED14 (human) [3] and with HA-tagged MED14 (human) [4] was “binds” each time.

B5: Elk-1 (expressed in MEFs) (protein, UniProt P19419 1-428)
chain: MDPSVTLWQFLLQLLREQGNGHIISWTSRDGGEFKLVDAEEVARLWGLRKNKTNMNYDKLSRALRYYYDKNIIRKVSGQKFVYKFVSYPEVAGCSTEDCPPQPEVSVTSTMPNVAPAAIHAAPGDTVSGKPGTPKGAGMAGPGGLARSSRNEYMRSGLYSTFTIQSLQPQPPPHPRPAVVLPSAAPAGAAAPPSGSRSTSPSPLEACLEAEEAGLPLQVILTPPEAPNLKSEELNVEPGLGRALPPEVKVEGPKEELEVAGERGFVPETTKAEPEVPPQEGVPARLPAVVMDTAGQAGGHAASSPEISQPQKGRKPRDLELPLSPSLLGGPGPERTPGSGSGSGLQAPGPALTPSLLPTHTLTPVLLTPSSLPPSIHFWSTLSPIAPRSPAKLSFQFPSSGSAQVHIPSISVDGLSTPVVLSPGPQKP
B5: the binding entry in assay [2] is “binds”.

B6: tagged Elk-1 (protein, UniProt P19419 1-428)
chain: MDPSVTLWQFLLQLLREQGNGHIISWTSRDGGEFKLVDAEEVARLWGLRKNKTNMNYDKLSRALRYYYDKNIIRKVSGQKFVYKFVSYPEVAGCSTEDCPPQPEVSVTSTMPNVAPAAIHAAPGDTVSGKPGTPKGAGMAGPGGLARSSRNEYMRSGLYSTFTIQSLQPQPPPHPRPAVVLPSAAPAGAAAPPSGSRSTSPSPLEACLEAEEAGLPLQVILTPPEAPNLKSEELNVEPGLGRALPPEVKVEGPKEELEVAGERGFVPETTKAEPEVPPQEGVPARLPAVVMDTAGQAGGHAASSPEISQPQKGRKPRDLELPLSPSLLGGPGPERTPGSGSGSGLQAPGPALTPSLLPTHTLTPVLLTPSSLPPSIHFWSTLSPIAPRSPAKLSFQFPSSGSAQVHIPSISVDGLSTPVVLSPGPQKP
In the case of B6, the binding entry with HA-tagged MED14 (human) [3] and with HA-tagged MED14 (human) [4] was “binds” in each case.

B7: MED23 (in HEK293 cells) (protein, UniProt Q9ULK4 1-1368)
chain: METQLQSIFEEVVKTEVIEEAFPGMFMDTPEDEKTKLISCLGAFRQFWGGLSQESHEQCIQWIVKFIHGQHSPKRISFLYDCLAMAVETGLLPPRLVCESLINSDTLEWERTQLWALTFKLVRKIIGGVDYKGVRDLLKVILEKILTIPNTVSSAVVQQLLAAREVIAYILERNACLLPAYFAVTEIRKLYPEGKLPHWLLGNLVSDFVDTFRPTARINSICGRCSLLPVVNNSGAICNSWKLDPATLRFPLKGLLPYDKDLFEPQTALLRYVLEQPYSRDMVCNMLGLNKQHKQRCPVLEDQLVDLVVYAMERSETEEKFDDGGTSQLLWQHLSSQLIFFVLFQFASFPHMVLSLHQKLAGRGLIKGRDHLMWVLLQFISGSIQKNALADFLPVMKLFDLLYPEKEYIPVPDINKPQSTHAFAMTCIWIHLNRKAQNDNSKLQIPIPHSLRLHHEFLQQSLRNKSLQMNDYKIALLCNAYSTNSECFTLPMGALVETIYGNGIMRIPLPGTNCMASGSITPLPMNLLDSLTVHAKMSLIHSIATRVIKLAHAKSSVALAPALVETYSRLLVYMEIESLGIKGFISQLLPTVFKSHAWGILHTLLEMFSYRMHHIQPHYRVQLLSHLHTLAAVAQTNQNQLHLCVESTALRLITALGSSEVQPQFTRFLSDPKTVLSAESEELNRALILTLARATHVTDFFTGSDSIQGTWCKDILQTIMSFTPHNWASHTLSCFPGPLQAFFKQNNVPQESRFNLKKNVEEEYRKWKSMSNENDIITHFSMQGSPPLFLCLLWKMLLETDHINQIGYRVLERIGARALVAHVRTFADFLVYEFSTSAGGQQLNKCIEILNDMVWKYNIVTLDRLILCLAMRSHEGNEAQVCYFIIQLLLLKPNDFRNRVSDFVKENSPEHWLQNDWHTKHMNYHKKYPEKLYFEGLAEQVDPPVQIQSPYLPIYFGNVCLRFLPVFDIVIHRFLELLPVSKSLETLLDHLGGLYKFHDRPVTYLYNTLHYYEMHLRDRAFLKRKLVHAIIGSLKDNRPQGWCLSDTYLKCAMNAREENPWVPDDTYYCRLIGRLVDTMAGKSPGPFPNCDWRFNEFPNPAAHALHVTCVELMALAVSGKEVGNALLNVVLKSQPLVPRENITAWMNAIGLIITALPEPYWIVLHDRIVSVISSPSLTSETEWVGYPFRLFDFTACHQSYSEMSCSYTLALAHAVWHHSSIGQLSLIPKFLTEVLLPIVKTEFQLLYVYHLVGPFLQRFQQERTRCMIEIGVAFYDMLLNVDQCSTHLNYMDPICDFLYHMKYMFTGDSVKEQVEKIICNLKPALKLRLRFITHISKMEPAAVPPQAMNSGSPAPQSNQVPVSLPVTQ
For B7, the binding result with HA-tagged MED14 (human) [3] and with HA-tagged MED14 (human) [4] was “binds” throughout.

B8: MED23 (protein, UniProt Q9ULK4 1-1368)
chain: METQLQSIFEEVVKTEVIEEAFPGMFMDTPEDEKTKLISCLGAFRQFWGGLSQESHEQCIQWIVKFIHGQHSPKRISFLYDCLAMAVETGLLPPRLVCESLINSDTLEWERTQLWALTFKLVRKIIGGVDYKGVRDLLKVILEKILTIPNTVSSAVVQQLLAAREVIAYILERNACLLPAYFAVTEIRKLYPEGKLPHWLLGNLVSDFVDTFRPTARINSICGRCSLLPVVNNSGAICNSWKLDPATLRFPLKGLLPYDKDLFEPQTALLRYVLEQPYSRDMVCNMLGLNKQHKQRCPVLEDQLVDLVVYAMERSETEEKFDDGGTSQLLWQHLSSQLIFFVLFQFASFPHMVLSLHQKLAGRGLIKGRDHLMWVLLQFISGSIQKNALADFLPVMKLFDLLYPEKEYIPVPDINKPQSTHAFAMTCIWIHLNRKAQNDNSKLQIPIPHSLRLHHEFLQQSLRNKSLQMNDYKIALLCNAYSTNSECFTLPMGALVETIYGNGIMRIPLPGTNCMASGSITPLPMNLLDSLTVHAKMSLIHSIATRVIKLAHAKSSVALAPALVETYSRLLVYMEIESLGIKGFISQLLPTVFKSHAWGILHTLLEMFSYRMHHIQPHYRVQLLSHLHTLAAVAQTNQNQLHLCVESTALRLITALGSSEVQPQFTRFLSDPKTVLSAESEELNRALILTLARATHVTDFFTGSDSIQGTWCKDILQTIMSFTPHNWASHTLSCFPGPLQAFFKQNNVPQESRFNLKKNVEEEYRKWKSMSNENDIITHFSMQGSPPLFLCLLWKMLLETDHINQIGYRVLERIGARALVAHVRTFADFLVYEFSTSAGGQQLNKCIEILNDMVWKYNIVTLDRLILCLAMRSHEGNEAQVCYFIIQLLLLKPNDFRNRVSDFVKENSPEHWLQNDWHTKHMNYHKKYPEKLYFEGLAEQVDPPVQIQSPYLPIYFGNVCLRFLPVFDIVIHRFLELLPVSKSLETLLDHLGGLYKFHDRPVTYLYNTLHYYEMHLRDRAFLKRKLVHAIIGSLKDNRPQGWCLSDTYLKCAMNAREENPWVPDDTYYCRLIGRLVDTMAGKSPGPFPNCDWRFNEFPNPAAHALHVTCVELMALAVSGKEVGNALLNVVLKSQPLVPRENITAWMNAIGLIITALPEPYWIVLHDRIVSVISSPSLTSETEWVGYPFRLFDFTACHQSYSEMSCSYTLALAHAVWHHSSIGQLSLIPKFLTEVLLPIVKTEFQLLYVYHLVGPFLQRFQQERTRCMIEIGVAFYDMLLNVDQCSTHLNYMDPICDFLYHMKYMFTGDSVKEQVEKIICNLKPALKLRLRFITHISKMEPAAVPPQAMNSGSPAPQSNQVPVSLPVTQ
As for B8, the binding entry in assay [5], in assay [6] and in assay [1] was “binds” each time.
